The record followed here is publication PMC10641312.

Protein sequences, listed by entry. Tags and fused reporters are not part of them.
UniProt P11802: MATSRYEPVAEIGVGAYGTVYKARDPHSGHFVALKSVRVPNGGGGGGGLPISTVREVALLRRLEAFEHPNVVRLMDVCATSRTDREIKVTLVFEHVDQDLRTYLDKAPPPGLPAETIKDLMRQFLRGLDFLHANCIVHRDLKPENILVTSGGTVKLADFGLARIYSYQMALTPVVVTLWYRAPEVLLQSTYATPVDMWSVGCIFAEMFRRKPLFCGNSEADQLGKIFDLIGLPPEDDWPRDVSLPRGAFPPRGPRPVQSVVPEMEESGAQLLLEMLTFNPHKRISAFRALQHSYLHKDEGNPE
UniProt P30281: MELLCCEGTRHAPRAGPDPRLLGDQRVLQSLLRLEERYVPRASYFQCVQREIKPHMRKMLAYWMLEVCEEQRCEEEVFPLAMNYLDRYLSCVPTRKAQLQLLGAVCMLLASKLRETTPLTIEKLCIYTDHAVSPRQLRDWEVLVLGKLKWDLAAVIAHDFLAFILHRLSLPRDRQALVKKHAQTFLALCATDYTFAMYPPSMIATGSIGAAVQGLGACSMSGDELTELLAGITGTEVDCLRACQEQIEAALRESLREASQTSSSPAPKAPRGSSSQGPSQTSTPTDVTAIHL

These are yes or no findings as the source states them, for the method shown. In cells and extracts the contact can be indirect. Some entries that bind do so weakly or less than the wild type.

The assay addresses CDK4 (human (endogenous in CAL-62, HTC-C3, 8505C and C-643 cells)) (UniProt P11802). Description: co-IP; immunoprecipitation with an anti-CDK4 antibody from cells treated for 6 d with vehicle, dabrafenib, trametinib or palbociclib alone or combined; immunodetection of co-precipitated proteins.

Turning to Cyclin D3 (from UniProt P30281 1-292), the binding result is on record as “binds”.
